# Where a name gives a salt, the structure may show the parent alone. ± gives the standard deviation of the averaged measurements. The list shows a part of the results. Single values are uncertain here, since repeats match poorly.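 Test systems: triple-negative MDA-MB-231 breast cancer cells and their brain-metastatic MDA-MB-231BRM derivative, each stably carrying empty vector, full-length GLI1 or truncated tGLI1. Viability after 48 h was read by CellTiter-Blue and expressed against 1% DMSO vehicle. A compound was tGLI1-selective if it lowered viability 20% more in tGLI1 cells than in vector and GLI1 cells.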
# Key:
# Experiment in all cases: cell viability relative to vehicle (DMSO) control (fraction); higher = more viable cells (less growth inhibition)
# Conditions in all cases: treatment time 48 h
# MDA-MB-231 GLI1 = test system: MDA-MB-231 GLI1
# MDA-MB-231 Vector = test system: MDA-MB-231 Vector
# MDA-MB-231 tGLI1 = test system: MDA-MB-231 tGLI1
# MDA-MB-231BRM GLI1 = test system: MDA-MB-231BRM GLI1
# MDA-MB-231BRM Vector = test system: MDA-MB-231BRM Vector
# MDA-MB-231BRM tGLI1 = test system: MDA-MB-231BRM tGLI1
SMILES,cell viability (MDA-MB-231 GLI1; 0.05 µM),cell viability (MDA-MB-231 GLI1; 0.5 µM),cell viability (MDA-MB-231 GLI1; 5 µM),cell viability (MDA-MB-231 Vector; 0.05 µM),cell viability (MDA-MB-231 Vector; 0.5 µM),cell viability (MDA-MB-231 Vector; 5 µM),cell viability (MDA-MB-231 tGLI1; 0.05 µM),cell viability (MDA-MB-231 tGLI1; 0.5 µM),cell viability (MDA-MB-231 tGLI1; 5 µM),cell viability (MDA-MB-231BRM GLI1; 0.05 µM),cell viability (MDA-MB-231BRM GLI1; 0.5 µM),cell viability (MDA-MB-231BRM GLI1; 5 µM),cell viability (MDA-MB-231BRM Vector; 0.05 µM),cell viability (MDA-MB-231BRM Vector; 0.5 µM),cell viability (MDA-MB-231BRM Vector; 5 µM),cell viability (MDA-MB-231BRM tGLI1; 0.05 µM),cell viability (MDA-MB-231BRM tGLI1; 0.5 µM),cell viability (MDA-MB-231BRM tGLI1; 5 µM)
Clc1ccc(C2(c3ccc(-c4cn[nH]c4)cc3)CCNCC2)cc1,1.48,1.57,0.9,1.93,1.18,0.648,1.26,1.34,0.706,1.22,1.23,0.958,0.732,1.12,1.05,0.601,1.16,0.957
COc1ccc2c(Oc3ccc(NC(=O)c4c(C)n(CC(C)(C)O)n(-c5ccccc5)c4=O)nc3)ccnc2c1,1.01,1.01,0.621,0.739,1.2,0.914,1.18,0.901,0.899,0.996,1.02,1.04,1.03,0.972,0.904,0.967,1.06,0.841
C[C@@H](NCCCc1cccc(C(F)(F)F)c1)c1cccc2ccccc12 [AMG-073 HCl (Cinacalcet hydrochloride)],1.25,1,0.369,0.909,0.939,0.00244,1.12,0.938,0.233,1.06,1.05,0.868,1.02,1.03,0.961,1.03,1.05,0.998
N#C/C(=C\c1ccc(O)c(O)c1)C(=O)NCc1ccccc1 [AG-490 (Tyrphostin B42)],1.08,1.42,1.02,1.2,1.17,1.21,0.952,1.32,0.569,1.01,0.944,0.885,0.893,0.917,0.934,1.01,0.936,0.934
COc1cc2/c(=N/c3ccc(Br)cc3F)nc[nH]c2cc1OCC1CCN(C)CC1 [Vandetanib (ZD6474)],1.37,1.76,0.97,1.22,1.2,0.75,1.2,1.51,0.927,0.931,0.945,0.938,0.912,0.907,0.972,1.03,0.949,0.933
CNc1nc(Nc2cn(C(C)(C)C#N)nc2C)ncc1C(F)(F)F,1.03,1.78,1.11,0.691,0.75,0.74,0.804,0.764,0.831,0.535,0.482,0.463,0.582,0.527,0.477,0.826,0.66,0.688
O=C(Nc1cccc(Cl)c1)Nc1ncc(CCNc2ncnc3ccsc23)s1 [SNS-314 Mesylate],1.09,1.21,1.01,1.09,1,0.752,0.972,1.14,0.681,0.969,0.969,0.735,0.91,0.898,0.771,0.923,0.957,0.655
CCc1c2c(nc3ccc(OC(=O)N4CCC(N5CCCCC5)CC4)cc13)-c1cc3c(c(=O)n1C2)COC(=O)[C@]3(O)CC [Irinotecan],1.09,1.11,0.86,1.27,1.18,0.81,1.11,1.05,0.672,1.03,0.996,0.932,1.08,1.03,0.89,1.04,0.993,1.01
CN(Cc1cnc2nc(N)nc(N)c2n1)c1ccc(C(=O)N[C@@H](CCC(=O)O)C(=O)O)cc1 [Abitrexate (Methotrexate)],1.19,1.02,0.701,1.3,1.19,0.962,1.11,1.03,0.801,1.01,0.984,1.03,0.984,0.981,1.02,1.06,1.01,1.03
CCOc1cc(N2CCC(O)CC2)ccc1Nc1ncc2c(n1)N(C)c1ccccc1C(=O)N2C,2.16,3.08,0.917,1.25,1.31,0.6,1.35,1.44,0.72,0.884,0.697,0.65,0.886,0.735,0.704,1.16,1.02,1
C=CCc1ccc(O)c(-c2ccc(O)c(CC=C)c2)c1 [Honokiol],1.11 ± 0.08,1.033 ± 0.00034,1.05 ± 0.043,1.08 ± 0.075,1.01 ± 0.11,1.13 ± 0.11,1.11 ± 0.079,0.985 ± 0.04,1.06 ± 0.26,0.979 ± 0.029,0.99 ± 0.011,0.954 ± 0.048,1.05 ± 0.11,1.02 ± 0.034,0.9877 ± 0.0025,1.02 ± 0.021,0.959 ± 0.048,0.97 ± 0.072
Fc1cc(-c2cccc3ncc(-c4cnn(C5CCNCC5)c4)nc23)cc(F)c1CN1CCOCC1,0.896,1,0.0438,1.02,1.16,0.344,1.14,1,0.234,1.05,0.972,1.01,1.06,0.958,0.948,1,1.01,0.854
O=C1CCC(N2C(=O)c3ccccc3C2=O)C(=O)N1 (configuration not stated) [Thalidomide],1.35,1.1,1.11,1.17,1.28,1.23,1.2,1.05,1.18,1.06,1.04,1.01,0.997,1.01,1.01,1.06,1.02,1.07
CNC(=O)CN1CCC(Oc2cc3c(Nc4cccc(Cl)c4F)ncnc3cc2OC)CC1 [AZD8931 (Sapitinib)],1.38,1.35,1.39,1.68,1.2,1.08,1.3,1.33,1.13,1.09,1.12,0.903,1.16,1.03,1.01,1.08,1.16,0.935
